This is one part of the list.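 Rule for the calls: active = dose-dependent thermal stabilisation significant by F-test of dose-response against flat model at 10% FDR; inactive = not significant.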
These targets were tested with Nc1nc2c(ncn2[C@@H]2O[C@H](COP(=O)(O)OP(=O)(O)OP(=O)(O)O)[C@@H](O)[C@H]2O)c(=O)[nH]1 (assay: dose-dependent thermal stabilisation call (2D-TPP, DLPTP, 10% FDR) (binary (1 = stabilised)); higher = stabilised by the compound). Conditions: system: Jurkat gel-filtered lysate; concentration range 1-500 µM.
Procedure: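 2D thermal proteome profiling in gel-filtered Jurkat E6.1 lysate (2 mg/ml) treated with NaGTP (0, 1, 10, 100, 500 uM) for 10 min at room temperature, then heated 3 min at one of 12 temperatures (42-63.9 C). Soluble protein was quantified by TMT10 MS. The value is the DLPTP call of the paper: dose-dependent thermal stabilisation over all temperatures at 10% FDR (F-test of a dose-response against a flat model); one experiment, one call per tested protein.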

Sequences of proteins named here, by UniProt entry; tags and fusion partners are left off. A change or cut given only in a name is not applied to a line headed by its entry.
UniProt Q9NW82: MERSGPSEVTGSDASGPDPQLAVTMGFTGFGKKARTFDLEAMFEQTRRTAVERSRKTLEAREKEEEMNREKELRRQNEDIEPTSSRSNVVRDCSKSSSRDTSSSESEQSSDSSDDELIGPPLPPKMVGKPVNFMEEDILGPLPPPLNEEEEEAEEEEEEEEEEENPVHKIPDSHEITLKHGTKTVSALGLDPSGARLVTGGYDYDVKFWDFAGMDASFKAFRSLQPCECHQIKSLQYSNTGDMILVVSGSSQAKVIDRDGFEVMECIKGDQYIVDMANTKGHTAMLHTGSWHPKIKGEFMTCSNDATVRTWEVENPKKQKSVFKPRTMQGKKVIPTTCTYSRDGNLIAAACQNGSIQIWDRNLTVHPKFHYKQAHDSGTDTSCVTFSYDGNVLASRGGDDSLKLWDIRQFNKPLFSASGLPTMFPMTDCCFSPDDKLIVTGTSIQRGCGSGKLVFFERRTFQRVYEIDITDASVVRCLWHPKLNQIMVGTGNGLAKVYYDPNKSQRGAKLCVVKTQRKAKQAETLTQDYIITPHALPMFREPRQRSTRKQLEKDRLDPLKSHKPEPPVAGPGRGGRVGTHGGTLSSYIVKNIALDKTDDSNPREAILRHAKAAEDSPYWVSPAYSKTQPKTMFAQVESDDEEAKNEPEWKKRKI
UniProt O95619, whole entry: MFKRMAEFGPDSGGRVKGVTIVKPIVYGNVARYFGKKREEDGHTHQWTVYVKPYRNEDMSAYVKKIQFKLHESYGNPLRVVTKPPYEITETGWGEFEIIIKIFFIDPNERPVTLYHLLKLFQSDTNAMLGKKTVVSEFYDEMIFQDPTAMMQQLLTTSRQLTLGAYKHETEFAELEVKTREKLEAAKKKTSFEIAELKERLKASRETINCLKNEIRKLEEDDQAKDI
UniProt P54578: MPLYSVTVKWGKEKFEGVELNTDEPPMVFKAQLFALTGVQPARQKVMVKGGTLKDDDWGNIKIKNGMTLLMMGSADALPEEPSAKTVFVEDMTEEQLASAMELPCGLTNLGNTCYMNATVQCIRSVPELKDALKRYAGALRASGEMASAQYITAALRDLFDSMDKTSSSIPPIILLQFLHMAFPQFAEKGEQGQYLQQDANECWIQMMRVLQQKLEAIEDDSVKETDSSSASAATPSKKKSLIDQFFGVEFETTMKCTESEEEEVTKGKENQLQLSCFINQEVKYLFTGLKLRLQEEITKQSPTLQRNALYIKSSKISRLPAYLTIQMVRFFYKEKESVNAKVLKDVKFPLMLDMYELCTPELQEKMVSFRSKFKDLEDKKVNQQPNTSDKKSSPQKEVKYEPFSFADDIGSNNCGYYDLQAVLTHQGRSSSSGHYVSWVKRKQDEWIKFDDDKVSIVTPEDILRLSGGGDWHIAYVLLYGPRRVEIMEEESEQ
UniProt Q9BYJ9: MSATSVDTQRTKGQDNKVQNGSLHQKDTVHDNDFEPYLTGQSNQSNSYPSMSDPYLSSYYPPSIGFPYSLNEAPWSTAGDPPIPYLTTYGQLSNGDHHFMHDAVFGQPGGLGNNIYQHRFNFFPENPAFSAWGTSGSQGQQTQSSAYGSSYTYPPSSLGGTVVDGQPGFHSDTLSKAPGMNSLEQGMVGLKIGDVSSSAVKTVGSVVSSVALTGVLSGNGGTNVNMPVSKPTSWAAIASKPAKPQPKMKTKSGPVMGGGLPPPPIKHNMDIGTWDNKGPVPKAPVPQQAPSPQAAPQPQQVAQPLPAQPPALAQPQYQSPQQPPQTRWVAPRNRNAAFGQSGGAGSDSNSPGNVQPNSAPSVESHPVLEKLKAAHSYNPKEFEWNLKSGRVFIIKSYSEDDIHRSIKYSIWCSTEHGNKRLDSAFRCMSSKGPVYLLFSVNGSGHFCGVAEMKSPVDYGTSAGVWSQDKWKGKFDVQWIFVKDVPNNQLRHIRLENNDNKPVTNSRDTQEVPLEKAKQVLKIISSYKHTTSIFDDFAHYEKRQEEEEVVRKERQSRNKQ
UniProt Q12768: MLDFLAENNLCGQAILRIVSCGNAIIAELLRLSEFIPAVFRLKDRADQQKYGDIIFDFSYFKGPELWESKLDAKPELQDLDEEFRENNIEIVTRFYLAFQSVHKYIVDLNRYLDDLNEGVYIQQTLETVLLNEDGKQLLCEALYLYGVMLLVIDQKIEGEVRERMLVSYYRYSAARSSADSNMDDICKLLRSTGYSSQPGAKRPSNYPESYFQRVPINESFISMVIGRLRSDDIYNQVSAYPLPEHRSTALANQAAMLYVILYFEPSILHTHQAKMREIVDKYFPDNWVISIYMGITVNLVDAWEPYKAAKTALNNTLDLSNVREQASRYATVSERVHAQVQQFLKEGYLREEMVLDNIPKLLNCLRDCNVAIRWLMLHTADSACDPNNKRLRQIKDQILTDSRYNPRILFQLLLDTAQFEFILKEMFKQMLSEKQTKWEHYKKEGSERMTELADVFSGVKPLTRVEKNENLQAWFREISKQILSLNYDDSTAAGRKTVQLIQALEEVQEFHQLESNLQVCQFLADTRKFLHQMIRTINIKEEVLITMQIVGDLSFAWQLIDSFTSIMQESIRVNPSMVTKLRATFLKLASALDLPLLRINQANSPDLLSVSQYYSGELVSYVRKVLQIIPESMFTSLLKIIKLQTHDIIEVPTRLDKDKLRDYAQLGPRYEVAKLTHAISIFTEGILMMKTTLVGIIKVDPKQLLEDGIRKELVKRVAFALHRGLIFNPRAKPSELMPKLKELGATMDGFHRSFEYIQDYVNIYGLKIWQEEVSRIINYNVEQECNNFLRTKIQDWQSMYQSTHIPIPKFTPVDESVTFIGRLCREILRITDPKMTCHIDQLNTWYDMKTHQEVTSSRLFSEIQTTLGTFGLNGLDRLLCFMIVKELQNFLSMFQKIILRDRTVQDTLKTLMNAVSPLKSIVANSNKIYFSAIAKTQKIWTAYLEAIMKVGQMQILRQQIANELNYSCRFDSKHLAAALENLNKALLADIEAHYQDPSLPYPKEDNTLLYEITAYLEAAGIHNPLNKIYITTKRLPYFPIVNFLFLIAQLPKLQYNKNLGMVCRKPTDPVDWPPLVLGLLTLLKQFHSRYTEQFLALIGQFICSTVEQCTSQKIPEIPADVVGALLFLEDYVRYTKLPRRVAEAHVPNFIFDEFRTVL
UniProt Q9H9C1: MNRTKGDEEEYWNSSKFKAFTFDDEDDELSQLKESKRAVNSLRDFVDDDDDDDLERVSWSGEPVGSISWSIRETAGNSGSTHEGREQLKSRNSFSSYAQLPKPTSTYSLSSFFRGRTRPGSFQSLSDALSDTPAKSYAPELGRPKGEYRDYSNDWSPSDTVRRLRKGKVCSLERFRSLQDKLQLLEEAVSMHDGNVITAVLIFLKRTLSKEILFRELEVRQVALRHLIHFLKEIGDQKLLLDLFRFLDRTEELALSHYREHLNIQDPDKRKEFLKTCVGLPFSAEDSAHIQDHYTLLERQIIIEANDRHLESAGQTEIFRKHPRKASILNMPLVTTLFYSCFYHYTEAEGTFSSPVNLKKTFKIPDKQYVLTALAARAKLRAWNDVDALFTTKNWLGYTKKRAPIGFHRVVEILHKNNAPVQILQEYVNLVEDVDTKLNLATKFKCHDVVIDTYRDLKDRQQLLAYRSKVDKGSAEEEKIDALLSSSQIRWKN
UniProt O76080: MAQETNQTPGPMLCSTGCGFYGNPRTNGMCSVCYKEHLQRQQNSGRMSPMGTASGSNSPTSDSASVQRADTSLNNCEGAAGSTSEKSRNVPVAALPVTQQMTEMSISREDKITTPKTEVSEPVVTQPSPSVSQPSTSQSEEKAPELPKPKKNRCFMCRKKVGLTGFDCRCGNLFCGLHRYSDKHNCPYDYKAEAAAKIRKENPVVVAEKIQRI
UniProt O95071: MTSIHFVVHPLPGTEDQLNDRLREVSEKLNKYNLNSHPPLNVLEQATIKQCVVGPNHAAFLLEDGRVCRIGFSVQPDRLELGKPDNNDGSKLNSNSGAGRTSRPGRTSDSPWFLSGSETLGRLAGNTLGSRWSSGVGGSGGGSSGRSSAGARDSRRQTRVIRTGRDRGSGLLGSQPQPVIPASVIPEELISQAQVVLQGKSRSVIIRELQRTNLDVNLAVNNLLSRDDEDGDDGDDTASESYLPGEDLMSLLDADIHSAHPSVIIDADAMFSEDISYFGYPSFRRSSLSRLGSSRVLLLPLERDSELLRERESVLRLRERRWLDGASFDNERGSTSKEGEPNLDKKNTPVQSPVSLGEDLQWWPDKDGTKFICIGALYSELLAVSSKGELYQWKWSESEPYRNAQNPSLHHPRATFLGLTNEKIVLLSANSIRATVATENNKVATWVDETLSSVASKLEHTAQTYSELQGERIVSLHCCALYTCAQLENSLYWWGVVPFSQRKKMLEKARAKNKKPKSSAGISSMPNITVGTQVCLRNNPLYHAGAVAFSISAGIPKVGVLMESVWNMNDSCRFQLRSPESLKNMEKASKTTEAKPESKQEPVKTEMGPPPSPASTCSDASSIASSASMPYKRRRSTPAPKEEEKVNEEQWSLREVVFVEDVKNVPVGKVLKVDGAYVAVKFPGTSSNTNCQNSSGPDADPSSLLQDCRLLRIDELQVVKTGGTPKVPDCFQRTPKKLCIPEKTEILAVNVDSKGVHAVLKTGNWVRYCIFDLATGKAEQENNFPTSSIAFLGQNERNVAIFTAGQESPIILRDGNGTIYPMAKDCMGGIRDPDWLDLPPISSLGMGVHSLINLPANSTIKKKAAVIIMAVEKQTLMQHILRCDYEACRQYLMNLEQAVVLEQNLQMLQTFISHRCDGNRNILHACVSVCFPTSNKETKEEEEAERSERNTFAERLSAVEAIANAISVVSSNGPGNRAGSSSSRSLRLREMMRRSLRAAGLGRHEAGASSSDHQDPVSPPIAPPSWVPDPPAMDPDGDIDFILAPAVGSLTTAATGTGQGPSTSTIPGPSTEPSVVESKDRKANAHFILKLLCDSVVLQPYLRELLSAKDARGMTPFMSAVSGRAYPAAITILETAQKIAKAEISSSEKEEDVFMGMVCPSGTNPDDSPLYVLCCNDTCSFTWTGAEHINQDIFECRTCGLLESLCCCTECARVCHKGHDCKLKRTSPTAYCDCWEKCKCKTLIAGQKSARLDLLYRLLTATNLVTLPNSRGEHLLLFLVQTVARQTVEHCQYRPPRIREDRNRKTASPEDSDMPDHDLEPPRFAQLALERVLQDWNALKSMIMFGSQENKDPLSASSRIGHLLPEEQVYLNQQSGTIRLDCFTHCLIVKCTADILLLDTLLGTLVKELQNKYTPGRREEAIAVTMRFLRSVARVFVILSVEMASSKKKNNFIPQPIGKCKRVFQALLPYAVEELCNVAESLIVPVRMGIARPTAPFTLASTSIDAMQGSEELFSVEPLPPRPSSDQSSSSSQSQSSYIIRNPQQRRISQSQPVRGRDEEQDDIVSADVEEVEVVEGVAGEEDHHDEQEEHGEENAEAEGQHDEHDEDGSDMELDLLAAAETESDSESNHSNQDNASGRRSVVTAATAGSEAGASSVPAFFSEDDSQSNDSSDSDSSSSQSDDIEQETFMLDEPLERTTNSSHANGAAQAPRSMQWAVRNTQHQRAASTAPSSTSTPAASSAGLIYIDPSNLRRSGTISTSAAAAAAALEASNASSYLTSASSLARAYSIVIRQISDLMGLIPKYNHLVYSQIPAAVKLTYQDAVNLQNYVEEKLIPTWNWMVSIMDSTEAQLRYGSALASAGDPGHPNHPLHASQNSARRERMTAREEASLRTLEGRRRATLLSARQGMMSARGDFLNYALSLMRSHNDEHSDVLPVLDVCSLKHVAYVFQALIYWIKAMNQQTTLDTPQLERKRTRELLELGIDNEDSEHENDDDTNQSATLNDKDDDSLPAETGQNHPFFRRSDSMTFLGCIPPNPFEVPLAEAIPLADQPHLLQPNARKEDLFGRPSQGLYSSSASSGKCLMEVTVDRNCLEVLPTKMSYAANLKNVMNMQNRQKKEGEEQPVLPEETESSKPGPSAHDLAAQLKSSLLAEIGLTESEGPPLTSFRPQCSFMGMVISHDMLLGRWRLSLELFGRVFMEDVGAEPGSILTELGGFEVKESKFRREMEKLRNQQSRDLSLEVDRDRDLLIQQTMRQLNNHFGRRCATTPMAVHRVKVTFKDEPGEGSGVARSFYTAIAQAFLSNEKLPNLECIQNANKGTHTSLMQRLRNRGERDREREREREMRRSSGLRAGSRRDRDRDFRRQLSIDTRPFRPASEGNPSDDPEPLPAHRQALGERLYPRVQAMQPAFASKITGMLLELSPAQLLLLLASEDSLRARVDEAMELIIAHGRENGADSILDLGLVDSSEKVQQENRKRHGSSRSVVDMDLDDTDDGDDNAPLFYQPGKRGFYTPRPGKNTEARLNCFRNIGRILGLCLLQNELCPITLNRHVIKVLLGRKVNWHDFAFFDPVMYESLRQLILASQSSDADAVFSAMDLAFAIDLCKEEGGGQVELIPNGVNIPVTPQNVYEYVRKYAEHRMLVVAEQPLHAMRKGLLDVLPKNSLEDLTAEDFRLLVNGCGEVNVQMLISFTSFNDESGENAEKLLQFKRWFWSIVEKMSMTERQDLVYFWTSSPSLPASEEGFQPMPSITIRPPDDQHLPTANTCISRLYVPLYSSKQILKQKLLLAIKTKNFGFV

Target	dose-dependent thermal stabilisation call
WDR70 (UniProt Q9NW82)	inactive: 0
YY1 (UniProt P25490)	inactive: 0
YEATS4 (UniProt O95619)	inactive: 0
XPA (UniProt P23025)	inactive: 0
USP14 (UniProt P54578)	inactive: 0
WASH2P (UniProt Q6VEQ5)	inactive: 0
YARS (UniProt P54577)	active: 1
VTA1 (UniProt Q9NP79)	inactive: 0
UNK (UniProt Q9C0B0)	inactive: 0
YTHDF1 (UniProt Q9BYJ9)	inactive: 0
USP15 (UniProt Q9Y4E8)	inactive: 0
WARS (UniProt P23381)	inactive: 0
YWHAH (UniProt Q04917)	inactive: 0
UBQLN2 (UniProt Q9UHD9)	inactive: 0
ZBTB44 (UniProt Q8NCP5)	inactive: 0
YWHAB (UniProt P31946)	inactive: 0
XPNPEP3 (UniProt Q9NQH7)	inactive: 0
VAV1 (UniProt P15498)	active: 1
XPO6 (UniProt Q96QU8)	inactive: 0
WASHC5 (UniProt Q12768)	inactive: 0

Target	dose-dependent thermal stabilisation call
USP19 (UniProt O94966)	inactive: 0
VIPAS39 (UniProt Q9H9C1)	inactive: 0
UCHL5 (UniProt Q9Y5K5)	inactive: 0
ZCRB1 (UniProt Q8TBF4)	inactive: 0
VPS37A (UniProt Q8NEZ2)	inactive: 0
VPS18 (UniProt Q9P253)	inactive: 0
ZAP70 (UniProt P43403)	active: 1
ZFAND5 (UniProt O76080)	inactive: 0
WDR11 (UniProt Q9BZH6)	inactive: 0
UTRN (UniProt P46939)	inactive: 0
VARS (UniProt P26640)	inactive: 0
ZC3H7A (UniProt Q8IWR0)	inactive: 0
WDCP (UniProt Q9H6R7)	inactive: 0
ZER1 (UniProt Q7Z7L7)	inactive: 0
VPS33B (UniProt Q9H267)	active: 1
WAS (UniProt P42768)	inactive: 0
UBR5 (UniProt O95071)	inactive: 0
WDR61 (UniProt Q9GZS3)	inactive: 0
UBR1 (UniProt Q8IWV7)	inactive: 0
VEZF1 (UniProt Q14119)	inactive: 0

Exported as comma-separated lines: entries from further up.
Target,dose-dependent thermal stabilisation call
VARS (UniProt P26640),inactive: 0
ZC3H7A (UniProt Q8IWR0),inactive: 0

— the supplement of paper PMC7666118
